Experimental data reported in PubChem BioAssay AID250 (DTP/NCI, 2004).
“And” between values parts separate entries of the source, which are not always exact repeats. Identical values can stand only once. Toxic doses and inconclusive results are not listed. Rule for the calls: active = survival T/C of 150% or more; inactive = T/C below 125% in these data.

System: BDF1 mice, L1210 leukemia sc, survival T/C
Assay: NCI In Vivo Anticancer Drug Screen. Data for tumor model L1210 Leukemia (subcutaneous) in B6D2F1 (BDF1) mice
Conditions: endpoint: median survival time, vehicle: water, higher = longer survival
Procedure: The antitumor activity of compounds was measured in mice bearing transplantable tumors. Survival or tumor size were measured and the results are expressed as the measurement made in the treated group (T) divided by the measurement made in the vehicle treated control group (C). The tumor model used in this assay is L1210 Leukemia (subcutaneous) in B6D2F1 (BDF1) mice

Measured: T/C

COc1cc2c(c(OC)c1OC)-c1ccc(OC)c(=O)cc1[C@@H](N)CC2
inactive: dose: 0.6 mg/kg/injection, schedule: Q01DX009 (ip) 101 % of control | dose: 0.6 mg/kg/injection, schedule: Q01DX009 (sc) 101 % of control | dose: 1.25 mg/kg/injection, schedule: Q01DX009 (ip) 106 % of control | dose: 1.25 mg/kg/injection, schedule: Q01DX009 (sc) 106 % of control and 121 % of control | dose: 2.5 mg/kg/injection, schedule: Q01DX009 (ip) 107 % of control | dose: 2.5 mg/kg/injection, schedule: Q01DX009 (sc) 104 % of control and 108 % of control | dose: 10.0 mg/kg/injection, schedule: Q01DX009 (sc) 101 % of control | dose: 20.0 mg/kg/injection, schedule: Q01DX009 (sc) 102 % of control | dose: 40.0 mg/kg/injection, schedule: Q01DX009 (sc) 108 % of control
